Drawing on PMC6546883, this text covers binding for 1 substance.

Results are given in words; binding and its absence hold for the method and conditions named. In cells and extracts the contact can be indirect. Some entries that bind do so weakly or less than the wild type.

Assay [1] addresses T1, α4-integrin (human (endogenous in Jurkat)) (UniProt P13612).
T1 sequence: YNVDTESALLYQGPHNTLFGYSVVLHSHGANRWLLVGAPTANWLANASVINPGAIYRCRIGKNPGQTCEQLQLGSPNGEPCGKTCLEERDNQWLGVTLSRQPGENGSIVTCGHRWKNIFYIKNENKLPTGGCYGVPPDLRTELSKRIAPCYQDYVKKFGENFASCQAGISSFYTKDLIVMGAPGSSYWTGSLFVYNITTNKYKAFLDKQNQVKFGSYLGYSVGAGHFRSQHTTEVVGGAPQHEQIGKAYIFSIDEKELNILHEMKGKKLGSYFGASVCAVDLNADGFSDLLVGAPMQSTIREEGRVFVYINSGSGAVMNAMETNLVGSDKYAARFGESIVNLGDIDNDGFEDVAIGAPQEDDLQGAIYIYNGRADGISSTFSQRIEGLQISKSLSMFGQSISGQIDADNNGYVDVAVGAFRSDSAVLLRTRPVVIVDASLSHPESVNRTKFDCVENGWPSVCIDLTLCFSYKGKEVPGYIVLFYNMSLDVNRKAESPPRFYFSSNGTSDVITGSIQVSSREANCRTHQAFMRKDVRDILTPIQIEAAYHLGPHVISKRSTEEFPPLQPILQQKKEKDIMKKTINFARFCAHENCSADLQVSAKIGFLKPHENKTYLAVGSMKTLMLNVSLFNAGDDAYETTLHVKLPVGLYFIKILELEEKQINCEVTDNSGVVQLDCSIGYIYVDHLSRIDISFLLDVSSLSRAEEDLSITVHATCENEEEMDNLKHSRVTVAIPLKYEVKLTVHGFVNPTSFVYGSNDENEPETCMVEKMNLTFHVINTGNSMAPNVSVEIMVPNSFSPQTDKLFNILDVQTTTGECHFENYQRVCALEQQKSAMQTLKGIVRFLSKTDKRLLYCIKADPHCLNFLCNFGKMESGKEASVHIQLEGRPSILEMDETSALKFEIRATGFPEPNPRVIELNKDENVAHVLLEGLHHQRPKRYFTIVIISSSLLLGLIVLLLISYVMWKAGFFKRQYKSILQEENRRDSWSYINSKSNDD
Nature of the assay: co-IP; α4 immunoprecipitated with HP2/1 antibody and protein A/G-Sepharose from 1 mg lysate of ERp57−/− Jurkat cells, non-treated or oxaliplatin-treated; immunoblot for α4 and CRT; PN buffer with 1% Triton X-100.

Assay [2] addresses T1, α4-integrin (human (endogenous in Jurkat)). Nature of the assay: co-IP; α4 immunoprecipitated with HP2/1 antibody and protein A/G-Sepharose from 1 mg lysate of Jurkat WT cells, non-treated or oxaliplatin-treated; immunoblot for α4 and CRT; PN buffer with 1% Triton X-100. Background: A western blot detects proteins with antibodies after separation by electrophoresis.

Consider “calreticulin (from UniProt P27797 18-417)”, for which the values for the binding result in assay [1] and in assay [2] were “no binding (condition: in ERp57−/− cells)” and “binds”, respectively.
